From article PMC10163288
The other results are listed elsewhere or left out.

B1: il10ra_site1_normal_mot_HHH_b2_06199_000000213_0001_1_17_H_._HHH_b1_04793_0001_0000300022_0000001_0_af2pred_0001 (protein)
chain: SSSSDKLVELTLKFVELLEREGDPEARRAAELLLRAAADIAKRLNDEELLEKIEQLLEELSSSSS
B2: il10ra_site1_sap_18_mot_HHH_b1_08616_000000009_0001_1_19_H_._HHH_b1_01800_0001_0000100007_0000001_0_0001 (protein)
chain: SSSSSEEDREVYELSREAVELDSDGNPEEARKVLEEAEELAREANNVLFLWIIEWLLRMLDSSSS
B3: il10ra_site1_normal_mot_HHH_b1_02997_000000220_0001_39_52_H_._HHH_b1_03750_0001_0000400038_0000001_0_1_af2pred_0001 (protein)
chain: SSSSSSDRLKRILELLRRALRIDDEEEAREIVEEAIELAQEAGNKQLLRLAEFILRNLSSSSSSS
B4: il10ra_site1_normal_mot_HHH_b1_04065_000000255_0001_41_56_H_._HHH_b2_01051_0001_0000500037_0000001_0 (protein)
chain: SSSSSDEHEEEVKELLEEAEKIDDDHERSQVLFRALRRAWEARDKELLREVDEVAIRLYHSSSSS
B5: il10ra_site1_sap_23_mot_HHH_b2_07521_000000141_0001_20_37_H_._HHH_b2_00924_0001_0000400022_0000001_0_0001_af2pred_dldesign_0_af2pred (protein)
chain: SSSSSKYEARQKTIELIKEASELEDKAEATKKVEEAVKLAKEANDKILEYTATYLLSKLKSSSSS
B6: il10ra_site1_sap_18_mot_HHH_b1_02062_000000185_0001_1_20_H_._HHH_b1_07805_0001_0000400025_0000001_0_0001_af2pred_dldesign_0_af2pred (protein)
chain: SSSSSEHEELVELIRKAAELYSEGKLEEAKETAEKAIELAKKLGDEVALYNAEYLLSKIESSSSS
B7: il10ra_site1_sap_24_mot_HHH_b2_01310_000000089_0001_41_55_H_._HHH_b2_00454_af2_0001_0000300016_0000001_0_0001 (protein)
chain: SSSSDAAQRVYELLREAVEALHEGDKEEAEEILREARELAEEANDMVMLMVIEMLERLIEDSSSS
B8: il10ra_site1_normal_mot_HHH_b2_07579_000000275_0001_1_19_H_._HHH_b1_00336_af2_0001_0000100014_0000001_0 (protein)
chain: SSSSDTQEVIELIREAAELLQNGNPEEAKKVLEEAKEIAEELNNFVARFAVEHLLRDIERLSSSS
B9: il10ra_site1_sap_17_mot_HHH_b2_01656_000000035_0001_1_20_H_._HHH_b1_08629_af2_0001_0000400021_0000001_0_0001_af2pred_0001 (protein)
chain: SSSSSAEEIVEEAKEEAEEARRQGNPEEAFEILLRALLLVAKLNNPEEARKLSQLLWELSRSSSS
B10: il10ra_site1_sap_26_mot_HHH_b1_01513_af2_000000021_0001_1_16_H_._HHH_b2_03098_af2_0002_0000600008_0000001_0_0001_af2pred_0001 (protein)
chain: SSSSSKSREVVELLRRALELAQQGNPEEAEELLEEARKLAEELNSPLLKHAVKAAERVVKGSSSS

Molecular target: il10ra, Q13651
Assay: yeast display titration

Apparent Kd, inactive:
B1 no binding seen
B2 no binding seen
B3 no binding seen
B4 > 0.719 µM
B5 no binding seen
B6 no binding seen
B7 no binding seen
B8 no binding seen
B9 no binding seen
B10 no binding seen
